Test results from patent US20110201649A1, “AGRICULTURAL COMPOSITION” (SUMITOMO CHEMICAL COMPANY, LIMITED, priority 2008, published 2011).
Some of these results come from one statement about several compounds together.

Tested on: Wheat Leaf Blotch (Septoria tritici)
Experiment: Test of effect in preventing infection by wheat leaf blotch
Format: in vivo
Settings: wheat (Apogee), foliar application 500 ppm, inoculated two days after, 3 days humid at 18° C. then 14 to 18 days under illumination

Row | Structure (SMILES) | lesion area on the treated plant as share of the affected area on a non-treated plant [%]
1 | Nc1ncccc1-c1cn(Cc2cccc(Oc3ccccc3)c2)nn1 [compound 2503] | ≤ 30
2 | Nc1ncccc1-c1cnn(Cc2cccc(Oc3ccccc3)c2)c1 [compound 1503] | ≤ 30
3 | COc1cccc(Cn2cc(-c3cccnc3N)cn2)c1F [compound 1518, 2-amino-3-{1-[(2-fluoro-3-methoxyphenyl)methyl]-1H-pyrazol-4-yl}pyridine] | ≤ 30
